# Results from the supplement of paper PMC8728848.
# Some of the results follow.
# B1: TAL6-4LysM (Trichoderma atroviride) (protein)
# chain: AADSIPSISPTGIITPTPTQSGMVSNCNKFYDVHSNDGCSAIASSQHVDLSSLYKWNPAIKTDCSGLQASVYVCIGILTTSMSTTSKLPTTTSKPSTTSKPPTGITTPTPTQSGMVKNCNKFYDVHSGDGCSAIASSQKVNLSSFYLWNPAVKTDCSGLQASVFVCIGTLTTSMSTTTSKLPTTTSKPSTTSKPPTGIITPTPTQNGMVKNCNKFYDVHSGDGCSAIASSQKVNLSSFYLWNPAVKTDCSGLQASVFVCVGTATTTTAAGITTPTPTQSGMVSGCNKFYDVHAGDGCSAIASSQKIALSSLYKWNPAVKTDCSGLQASVYICIGVGNAAAARVTGALEQKLISEEDLNSAVDHHHHHH
# What was measured:
# Test in all cases: glycan array binding signal (z-score within array); higher = stronger binding
# Conditions in all cases: glycan notation: IUPAC condensed, linker removed
# [1] = target: Gal(b1-3)GlcNAc(b1-2)Man(a1-3)[Gal(b1-3)GlcNAc(b1-2)Man(a1-6)]Man(b1-4)GlcNAc(b1-4)[Fuc(a1-6)]GlcNAc
# Outline: (§1)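 The Consortium for Functional Glycomics database supplied 3228 glycan arrays, of which those lacking an available protein sequence were dropped. The binding signal, a within-array Z-score, was averaged across arrays of the same protein sequence and across linkers. Negative scores can be read as non-binding.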
# [2] = target: Gal(b1-3)GlcNAc(b1-2)Man(a1-3)[GlcNAc(b1-4)][Gal(b1-3)GlcNAc(b1-2)Man(a1-6)]Man(b1-4)GlcNAc(b1-4)GlcNAc
# Outline: as §1
# [3] = target: Gal(b1-3)GlcNAc(b1-2)[Gal(b1-3)GlcNAc(b1-6)]Man(a1-6)[Gal(b1-3)GlcNAc(b1-2)Man(a1-3)]Man(b1-4)GlcNAc(b1-4)GlcNAc
# Outline: as §1
# [4] = target: Gal(b1-3)GlcNAc(b1-3)Gal(b1-3)GlcNAc
# Outline: as §1
# [5] = target: Gal(b1-3)GlcNAc(b1-3)Gal(b1-4)Glc
# Outline: as §1
# [6] = target: Gal(b1-3)GlcNAc(b1-3)Gal(b1-4)GlcNAc
# Outline: as §1
# [7] = target: Gal(b1-3)GlcNAc(b1-3)Gal(b1-4)GlcNAc(b1-2)Man(a1-3)[Gal(b1-3)GlcNAc(b1-3)Gal(b1-4)GlcNAc(b1-2)Man(a1-6)]Man(b1-4)GlcNAc(b1-4)GlcNAc
# Outline: as §1
# [8] = target: Gal(b1-3)GlcNAc(b1-3)Gal(b1-4)GlcNAc(b1-2)[Gal(b1-3)GlcNAc(b1-3)Gal(b1-4)GlcNAc(b1-6)]Man(a1-6)[Gal(b1-3)GlcNAc(b1-3)Gal(b1-4)GlcNAc(b1-2)Man(a1-3)]Man(b1-4)GlcNAc(b1-4)[Fuc(a1-6)]GlcNAc
# Outline: as §1
# [9] = target: Gal(b1-3)GlcNAc(b1-3)Gal(b1-4)GlcNAc(b1-3)Gal(b1-4)GlcNAc(b1-2)[Gal(b1-3)GlcNAc(b1-3)Gal(b1-4)GlcNAc(b1-3)Gal(b1-4)GlcNAc(b1-6)]Man(a1-6)[Gal(b1-3)GlcNAc(b1-3)Gal(b1-4)GlcNAc(b1-3)Gal(b1-4)GlcNAc(b1-2)Man(a1-3)]Man(b1-4)GlcNAc(b1-4)[Fuc(a1-6)]GlcNAc
# Outline: as §1
# [10] = target: Gal(b1-3)GlcNAc(b1-3)Gal(b1-4)GlcNAc(b1-6)[Gal(b1-3)GlcNAc(b1-3)]Gal(b1-4)Glc
# Outline: as §1
# [11] = target: Gal(b1-3)GlcNAc(b1-3)Gal(b1-4)[Fuc(a1-3)]GlcNAc
# Outline: as §1
# [12] = target: Gal(b1-3)GlcNAc(b1-3)Gal(b1-4)[Fuc(a1-3)]GlcNAc(b1-6)[Gal(b1-3)GlcNAc(b1-3)]Gal(b1-4)Glc
# Outline: as §1
# [13] = target: Gal(b1-3)GlcNAc(b1-3)GalNAc
# Outline: as §1
# [14] = target: Gal(b1-3)GlcNAc(b1-6)Gal(b1-4)GlcNAc
# Outline: as §1
# [15] = target: Gal(b1-3)GlcNAc(b1-6)GalNAc
# Outline: as §1
# [16] = target: Gal(b1-3)GlcNAc(b1-6)[Gal(b1-3)]GalNAc
# Outline: as §1
# [17] = target: Gal(b1-3)GlcNAc6S
# Outline: as §1
# [18] = target: Gal(b1-3)[Fuc(a1-4)]GlcNAc
# Outline: as §1
# [19] = target: Gal(b1-3)[Fuc(a1-4)]GlcNAc(b1-2)Man
# Outline: as §1
# [20] = target: Gal(b1-3)[Fuc(a1-4)]GlcNAc(b1-2)Man(a1-3)[Gal(b1-3)[Fuc(a1-4)]GlcNAc(b1-2)Man(a1-6)]Man(b1-4)GlcNAc(b1-4)[Fuc(a1-6)]GlcNAc
# Outline: as §1
# [21] = target: Gal(b1-3)[Fuc(a1-4)]GlcNAc(b1-3)Gal(b1-3)[Fuc(a1-4)]GlcNAc
# Outline: as §1
# [22] = target: Gal(b1-3)[Fuc(a1-4)]GlcNAc(b1-3)Gal(b1-4)[Fuc(a1-3)]GlcNAc
# Outline: as §1
# [23] = target: Gal(b1-3)[Fuc(a1-4)]GlcNAc(b1-6)GalNAc
# Outline: as §1
# [24] = target: Gal(b1-3)[GlcNAc(b1-6)]GalNAc
# Outline: as §1
# [25] = target: Gal(b1-3)[Neu5Ac(a2-6)]GalNAc
# Outline: as §1
# [26] = target: Gal(b1-3)[Neu5Ac(a2-6)]GlcNAc(b1-4)Gal(b1-4)Glc
# Outline: as §1
# [27] = target: Gal(b1-3)[Neu5Ac(b2-6)]GalNAc
# Outline: as §1
# [28] = target: Gal(b1-4)Gal
# Outline: as §1
# [29] = target: Gal(b1-4)GalNAc(a1-3)[Fuc(a1-2)]Gal(b1-4)GlcNAc
# Outline: as §1
# [30] = target: Gal(b1-4)GalNAc(b1-3)[Fuc(a1-2)]Gal(b1-4)GlcNAc
# Outline: as §1
# [31] = target: Gal(b1-4)Glc
# Outline: as §1
# [32] = target: Gal(b1-4)Glc6S
# Outline: as §1
# [33] = target: Gal(b1-4)GlcNAc
# Outline: as §1
# [34] = target: Gal(b1-4)GlcNAc(a1-6)Gal(b1-4)GlcNAc
# Outline: as §1
# [35] = target: Gal(b1-4)GlcNAc(b1-2)Man
# Outline: as §1
# [36] = target: Gal(b1-4)GlcNAc(b1-2)Man(a1-3)Man(b1-4)GlcNAc(b1-4)GlcNAc
# Outline: as §1
# [37] = target: Gal(b1-4)GlcNAc(b1-2)Man(a1-3)[Gal(b1-4)GlcNAc(b1-2)Man(a1-6)]Man(b1-4)GlcNAc(b1-4)GlcNAc
# Outline: as §1
binder,measurement,setting,value
B1,glycan array binding signal (z-score),[1],-0.545
same,glycan array binding signal (z-score),[2],1.18
same,glycan array binding signal (z-score),[3],0.474
same,glycan array binding signal (z-score),[4],-0.097
same,glycan array binding signal (z-score),[5],1.22
same,glycan array binding signal (z-score),[6],-1.02
same,glycan array binding signal (z-score),[7],0.183
same,glycan array binding signal (z-score),[8],-0.349
same,glycan array binding signal (z-score),[9],0.206
same,glycan array binding signal (z-score),[10],-0.934
same,glycan array binding signal (z-score),[11],-0.408
same,glycan array binding signal (z-score),[12],-0.225
same,glycan array binding signal (z-score),[13],0.663
same,glycan array binding signal (z-score),[14],0.003
same,glycan array binding signal (z-score),[15],-0.263
same,glycan array binding signal (z-score),[16],-0.367
same,glycan array binding signal (z-score),[17],3.15
same,glycan array binding signal (z-score),[18],-0.074
same,glycan array binding signal (z-score),[19],0.506
same,glycan array binding signal (z-score),[20],1.23
same,glycan array binding signal (z-score),[21],-0.763
same,glycan array binding signal (z-score),[22],0.014
same,glycan array binding signal (z-score),[23],-0.1
same,glycan array binding signal (z-score),[24],2.39
same,glycan array binding signal (z-score),[25],-0.969
same,glycan array binding signal (z-score),[26],-0.311
same,glycan array binding signal (z-score),[27],-0.444
same,glycan array binding signal (z-score),[28],-1.42
same,glycan array binding signal (z-score),[29],-1.42
same,glycan array binding signal (z-score),[30],1.07
same,glycan array binding signal (z-score),[31],-0.134
same,glycan array binding signal (z-score),[32],-0.334
same,glycan array binding signal (z-score),[33],0.514
same,glycan array binding signal (z-score),[34],0.444
same,glycan array binding signal (z-score),[35],0.361
same,glycan array binding signal (z-score),[36],0.99
same,glycan array binding signal (z-score),[37],0.345

# Already shown: entries from further up.
binder,measurement,setting,value
B1,glycan array binding signal (z-score),[34],0.444
same,glycan array binding signal (z-score),[35],0.361
same,glycan array binding signal (z-score),[36],0.99
